Here are results for two molecules from publication doi:10.1101/2024.05.23.595484.

Sequences of proteins named here, by UniProt entry; tags and fusion partners are left off. Residues count along the entry.
UniProt P06241, residues 82-143: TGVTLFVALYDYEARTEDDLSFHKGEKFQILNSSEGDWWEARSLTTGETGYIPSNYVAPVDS
UniProt P07947: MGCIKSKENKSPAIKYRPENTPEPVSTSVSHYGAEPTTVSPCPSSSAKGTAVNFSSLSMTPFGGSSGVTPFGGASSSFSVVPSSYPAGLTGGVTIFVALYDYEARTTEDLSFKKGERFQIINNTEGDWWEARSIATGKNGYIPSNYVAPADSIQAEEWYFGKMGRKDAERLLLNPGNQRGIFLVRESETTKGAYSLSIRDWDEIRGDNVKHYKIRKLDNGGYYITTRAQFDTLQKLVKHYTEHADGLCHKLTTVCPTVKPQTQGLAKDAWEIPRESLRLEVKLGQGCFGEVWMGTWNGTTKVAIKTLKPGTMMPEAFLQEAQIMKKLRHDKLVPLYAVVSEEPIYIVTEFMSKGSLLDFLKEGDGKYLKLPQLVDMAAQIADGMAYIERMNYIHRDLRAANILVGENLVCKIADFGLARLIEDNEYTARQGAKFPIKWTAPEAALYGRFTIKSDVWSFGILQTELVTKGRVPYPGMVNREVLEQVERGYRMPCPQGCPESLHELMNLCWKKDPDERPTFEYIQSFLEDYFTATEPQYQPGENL

Results are given in words; binding and its absence hold for the method and conditions named. For part of these data: Binding seen in cells or lysates may run through a third protein. Some results given as binding are weak or reduced against the parent protein; the word gives no strength. For part of these data: Where a sequence is shown, tags or fusion partners need not be part of it.

Assay [1] addresses epidermal growth factor receptor (human (endogenous in HEK293T)) (UniProt P00533). The assay can be described thus: co-IP.
The target of assay [2] is GST fusion of the FYN SH3 domain (UniProt P06241). The assay can be described thus: peptide or protein array.
The target of assay [3] is T1, GST fusion of the PLCγ1 SH3 domain (UniProt P19174).
T1 sequence: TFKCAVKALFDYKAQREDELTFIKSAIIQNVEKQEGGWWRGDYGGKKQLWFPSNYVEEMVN
The assay can be described thus: peptide or protein array.

With “YES (from UniProt P07947 1-543) (enzyme)”, in assay [1], the binding entry is “binds”.

Regarding GGGGAAPQPHPPPAFSPAFDNL (biotinylated) [PRM-containing HER2 tail sequence peptide, microarray probe], the binding entry in assay [2] and in assay [3] was “binds” each time.
